# Experimental data published in PubChem BioAssay AID328 (DTP/NCI, 2004).
# The list shows only some results of the screen, not a fair sample: it gathers tests that were run many times, whatever their T/C, doses with no T/C, and many T/C values between a quarter and a half above the control. Other doses and runs of a compound stand elsewhere. T/C is the treated group as % of the vehicle group. Some entries give survivors of the animals treated and no T/C: the source holds a T/C of zero for them, seemingly a mark for toxic or unscored doses. Some doses without a T/C left all or most animals alive at the check, yet need not have been tolerated: survival well below the control is almost never listed, so the zero probably covers shortened survival too. Counts of survivors are from the toxicity check (mostly the fifth day) where no day follows; animals may have died later. Schedules are NCI's codes, taken here to give the interval after Q, in days (D) or hours (H), and the number of doses after X. Some doses were run more than once; the values are given in rising order. For survival time, the PubChem record calls one and a half times the control and up active, and a quarter to a half above the control has no call in these data; cut-offs in other NCI protocols can differ. Some T/C values carry the count of animals alive at the toxicity check (mostly the fifth day); where none is given, no animal had died by that day.
# Tested on: BDF1 mice, P388 leukemia ip, median survival T/C
# Test: NCI In Vivo Anticancer Drug Screen. Data for tumor model P388 Leukemia (intraperitoneal) in B6D2F1 (BDF1) mice
# Conditions: T/C endpoint: median survival time, higher T/C = longer survival
# Procedure, shortened: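 Survival ratio, drug arm over vehicle arm, in mice with a transplanted tumour.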
# [1] = dose: 50.0 mg/kg/injection, schedule: Q01DX009 (ip), vehicle: saline
# [2] = dose: 100.0 mg/kg/injection, schedule: Q01DX009 (ip), vehicle: saline
# [3] = dose: 200.0 mg/kg/injection, schedule: Q01DX009 (ip), vehicle: saline
# [4] = dose: 12.5 mg/kg/injection, schedule: Q01DX009 (ip), vehicle: saline
# [5] = dose: 200.0 mg/kg/injection, schedule: Q04DX003 (ip), vehicle: saline with Tween-80
# [6] = dose: 25.0 mg/kg/injection, schedule: Q01DX009 (ip), vehicle: saline with Tween-80
# [7] = dose: 25.0 mg/kg/injection, schedule: Q01DX009 (ip), vehicle: saline
# [8] = dose: 75.0 mg/kg/injection, schedule: Q01DX009 (ip), vehicle: saline
# [9] = dose: 400.0 mg/kg/injection, schedule: Q04DX003 (ip), vehicle: saline
# [10] = dose: 100.0 mg/kg/injection, schedule: Q01DX009 (ip), vehicle: saline with Tween-80
# [11] = dose: 200.0 mg/kg/injection, schedule: Q01DX009 (ip), vehicle: saline with Tween-80
# [12] = dose: 37.5 mg/kg/injection, schedule: Q01DX009 (ip), vehicle: saline
# [13] = dose: 400.0 mg/kg/injection, schedule: Q01DX009 (ip), vehicle: saline
structure (smiles),measurement,setting,value
CCCCCCCCC[N+]12CC[N+](CCCCCCCCC)(CC1)CC2,survivor count,[1],0 of 6
same,survivor count,[2],0 of 6
same,survivor count,[3],0 of 6
COC1(OC)C2CCC1C(Cl)=C2Cl,survivor count,[4],6 of 6
COc1cccc(/C=N/NC(=O)C[n+]2ccccc2)c1OC,survivor count,"dose: 100.0 mg/kg/injection, schedule: Q04DX003 (ip), vehicle: saline with Tween-80",5 of 6
same,survivor count,[5],0 of 6
FC(F)c1nc2nc(Cl)c(Cl)nc2[nH]1,T/C,[6],125 % of control
same,T/C,"dose: 30.0 mg/kg/injection, schedule: Q01DX009 (ip), vehicle: saline with Tween-80",130 % of control
same,T/C,"dose: 60.0 mg/kg/injection, schedule: Q01DX009 (ip), vehicle: saline with Tween-80",130 % of control
same,T/C,"dose: 75.0 mg/kg/injection, schedule: Q01DX009 (ip), vehicle: saline with Tween-80",140 % of control
same,survivor count,"dose: 90.0 mg/kg/injection, schedule: Q01DX009 (ip), vehicle: saline with Tween-80",3 of 6
same,survivor count,[5],0 of 6
CCCCCCCCCCCC[N+](CC)(CC)CC(=O)O,T/C,[4],126 % of control
same,T/C,[7],126 % of control
same,T/C,[1],142 % of control
same,survivor count,[8],3 of 6
CCN(CC)P(=O)(N1CC1)N1CC1,T/C,"dose: 16.5 mg/kg/injection, schedule: Q04DX003 (ip), vehicle: saline",140 % of control
same,survivor count,"dose: 25.0 mg/kg/injection, schedule: Q04DX003 (ip), vehicle: saline",6 of 6
same,survivor count,"dose: 37.5 mg/kg/injection, schedule: Q04DX003 (ip), vehicle: saline",3 of 6 and 6 of 6
same,survivor count,"dose: 100.0 mg/kg/injection, schedule: Q04DX003 (ip), vehicle: saline",2 of 6
same,survivor count,"dose: 200.0 mg/kg/injection, schedule: Q04DX003 (ip), vehicle: saline",0 of 6
same,survivor count,[9],0 of 6
COC1C(O)CC(=O)OC(C)C/C=C/C=C/C(OC2CCC(N(C)C)C(C)O2)C(C)CC(CC=O)C1OC1OC(C)C(OC2CC(C)(O)C(O)C(C)O2)C(N(C)C)C1O (stereo unspecified),survivor count,"dose: 6.25 mg/kg/injection, schedule: Q01DX009 (ip), vehicle: saline with Tween-80",3 of 3
same,survivor count,"dose: 12.5 mg/kg/injection, schedule: Q01DX009 (ip), vehicle: saline with Tween-80",3 of 3
same,survivor count,[6],3 of 3
same,survivor count,[10],0 of 3
same,survivor count,[11],0 of 3
same,survivor count,"dose: 400.0 mg/kg/injection, schedule: Q01DX009 (ip), vehicle: saline with Tween-80",0 of 3
N#C/C1=C(\N)CCCOCCCOCCCOCCCOCCCOCC1,survivor count,[9],0 of 6
CCCCCCCCCCCCCS,T/C,"dose: 66.0 mg/kg/injection, schedule: Q01DX009 (ip), vehicle: saline with Tween-80",127 % of control
same,survivor count,[10],3 of 6
same,survivor count,"dose: 150.0 mg/kg/injection, schedule: Q01DX009 (ip), vehicle: saline with Tween-80",3 of 6
CCN(CC)CCCC(C)Nc1cc(C)nc2cc(N(C)C)ccc12 (stereo unspecified),T/C,"dose: 25.0 mg/kg/injection, schedule: Q01DX009 (ip), vehicle: Klucel (hydroxypropylcellulose) (HPC)",132 % of control
CN(C)N=Nc1cn(C2OC(CO)C(O)C2O)c(=O)[nH]c1=O (stereo unspecified),T/C,[12],140 % of control
same,T/C,[8],125 % of control
same,T/C,[2],125 % of control
same,T/C,"dose: 150.0 mg/kg/injection, schedule: Q01DX009 (ip), vehicle: saline",145 % of control
same,T/C,[3],141 % of control
same,T/C,"dose: 300.0 mg/kg/injection, schedule: Q01DX009 (ip), vehicle: saline","91, 140, 180, 225, 300 % of control"
same,survivor count,[13],5 of 6
same,survivor count,"dose: 600.0 mg/kg/injection, schedule: Q01DX009 (ip), vehicle: saline",1 of 6
O=C(NO)c1cccnc1,T/C,"dose: 445.0 mg/kg/injection, schedule: Q01DX010 (ip), vehicle: water",126 % of control [5 of 6 alive]
same,T/C,"dose: 670.0 mg/kg/injection, schedule: Q01DX010 (ip), vehicle: water",138 % of control
same,survivor count,"dose: 1000.0 mg/kg/injection, schedule: Q01DX010 (ip), vehicle: water",1 of 6
CC(C)c1nsc(N)c1C(N)=O,survivor count,[11],5 of 6
C[n+]1c2cc(N)ccc2cc2ccc(N)cc21,T/C,"dose: 3.5 mg/kg/injection, schedule: Q01DX009 (ip), vehicle: saline",138 % of control
same,T/C,"dose: 5.3 mg/kg/injection, schedule: Q01DX009 (ip), vehicle: saline",144 % of control
same,survivor count,"dose: 18.0 mg/kg/injection, schedule: Q01DX009 (ip), vehicle: saline",5 of 6
C=C(C)C(=O)O[C@H]1C[C@@]23O[C@@H]2CCC(=C[C@H]2OC(=O)C(=C)[C@H]12)COC3O (stereo partly specified),survivor count,[12],3 of 6
same,survivor count,"dose: 75.0 mg/kg/injection, schedule: Q04DX003 (ip), vehicle: saline",1 of 6
CN(S(=O)(=O)CC(F)(F)F)S(=O)(=O)C(F)(F)F,survivor count,[4],5 of 6
same,survivor count,[7],6 of 6
same,survivor count,[1],5 of 6 and 6 of 6
same,survivor count,[2],5 of 6
same,survivor count,[3],4 of 6
same,survivor count,[13],5 of 6
OCn1cnc2c(SC3CCCC3)ncnc21,T/C,"dose: 150.0 mg/kg/injection, schedule: Q01DX009 (ip), vehicle: Klucel (hydroxypropylcellulose) (HPC)",140 % of control
same,survivor count,"dose: 300.0 mg/kg/injection, schedule: Q01DX009 (ip), vehicle: Klucel (hydroxypropylcellulose) (HPC)",1 of 6
same,survivor count,"dose: 600.0 mg/kg/injection, schedule: Q01DX009 (ip), vehicle: Klucel (hydroxypropylcellulose) (HPC)",0 of 6
CCCCOB(CI)OCCCC,survivor count,[4],1 of 6
same,survivor count,[7],0 of 6
CC(=O)CC(C)=O.CC(=O)CC(C)=O.Cc1c[nH]cn1.O=N[O-].[Co],survivor count,"dose: 400.0 mg/kg/injection, schedule: Q04DX002 (ip), vehicle: saline with Tween-80",5 of 6
COc1cc2cc3c4ccccc4cc[n+]3c(C)c2cc1OC (tested in a mixture with another compound),T/C,"dose: 5.0 mg/kg/injection, schedule: Q01DX009 (ip), vehicle: saline",140 % of control
same,T/C,"dose: 10.0 mg/kg/injection, schedule: Q01DX009 (ip), vehicle: saline",136 % of control
same,T/C,"dose: 10.0 mg/kg/injection, schedule: Q04DX003 (ip), vehicle: saline",137 % of control [5 of 6 alive]
same,T/C,"dose: 20.0 mg/kg/injection, schedule: Q04DX003 (ip), vehicle: saline",141 % of control
same,survivor count,"dose: 80.0 mg/kg/injection, schedule: Q01DX009 (ip), vehicle: saline",4 of 6
same,survivor count,"dose: 80.0 mg/kg/injection, schedule: Q04DX003 (ip), vehicle: saline",5 of 6
same,survivor count,"dose: 160.0 mg/kg/injection, schedule: Q01DX009 (ip), vehicle: saline",2 of 6
same,survivor count,"dose: 160.0 mg/kg/injection, schedule: Q04DX003 (ip), vehicle: saline",5 of 6
same,survivor count,"dose: 320.0 mg/kg/injection, schedule: Q04DX003 (ip), vehicle: saline",6 of 6
